According to US11986471B2, “Compounds and methods of use” (Tango Therapeutics, Inc., priority 2018, dated 2024):
For at least one compound, name, drawing or mass did not settle the structure.

Chains of the proteins cited; added tags and fusions are not shown.
UniProt O14744, whole entry: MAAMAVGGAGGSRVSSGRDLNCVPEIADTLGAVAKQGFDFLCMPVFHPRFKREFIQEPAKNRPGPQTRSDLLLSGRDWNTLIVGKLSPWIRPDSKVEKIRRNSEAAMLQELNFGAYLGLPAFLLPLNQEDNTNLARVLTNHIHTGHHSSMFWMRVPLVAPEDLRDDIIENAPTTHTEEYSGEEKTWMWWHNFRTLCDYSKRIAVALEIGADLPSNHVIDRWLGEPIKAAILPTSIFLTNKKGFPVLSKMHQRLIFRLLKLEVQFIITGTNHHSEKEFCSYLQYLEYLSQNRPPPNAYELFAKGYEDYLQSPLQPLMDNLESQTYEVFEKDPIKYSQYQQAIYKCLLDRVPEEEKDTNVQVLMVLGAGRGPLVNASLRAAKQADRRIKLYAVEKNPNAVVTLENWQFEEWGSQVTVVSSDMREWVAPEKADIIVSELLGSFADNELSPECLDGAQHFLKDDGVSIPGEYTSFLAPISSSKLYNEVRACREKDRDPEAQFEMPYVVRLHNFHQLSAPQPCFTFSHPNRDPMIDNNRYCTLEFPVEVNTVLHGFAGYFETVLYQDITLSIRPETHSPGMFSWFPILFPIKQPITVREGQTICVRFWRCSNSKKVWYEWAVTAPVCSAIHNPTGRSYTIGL

Target: T1, PRMT5 (Homo sapiens, UniProt O14744)
T1 construct: purchased Viva (custom protein)
Assay: PRMT5 IC50 assay in the presence of MTA as cofactor
Format: biochemical
Excerpt: Table 1a indicates IC50 values (μM) against PRMT5 for exemplary compounds in the presence of SAM as cofactor, with no cofactor and with MTA as cofactor, respectively (columns 3-5). […] The Ki values can be calculated from the IC50 values as described in the Examples section. As detailed in the Examples section, for the assay performed in the presence of SAM, IC50=Ki×1.5 (Ki=IC50/1.5). For the assay performed in the presence of MTA, IC50=Ki×13.5 (Ki=IC50/13.5). Column 6 indicates the ratio between the Ki of compounds in the presence of SAM and the Ki of compounds in the presence of MTA

[1] = ratio between Ki in the presence of SAM and Ki in the presence of MTA

Structure (SMILES)	SAM/MTA Ratio [1]	SAM/MTA Ratio (ratio between the Ki in the presence of SAM and the Ki in the presence of MTA)
Cc1ncoc1COc1ccc2c(c1Br)CCN(C[C@@H](O)CNC(=O)c1ccnc(NC3CCC3)c1)C2 [Compound 267, N-[(2S)-3-[5-bromo-6-[(4-methyloxazol-5-yl)methoxy]-3,4-dihydro-1H-isoquinolin-2-yl]-2-hydroxy-propyl]-2-(cyclobutylamino)pyridine-4-carboxamide]	A (a Ki ratio greater than or equal to 10 fold between the Ki in the presence of SAM and the Ki in the presence of MTA)	
Cc1c(OCc2cnco2)ccc2c1CCN(C[C@@H](O)CNC(=O)c1ccc3c(c1)CCN(C(=O)c1ccc(Br)cc1)C3)C2 [Compound 546]		A (a Ki ratio greater than or equal to 10 fold between the Ki in the presence of SAM and the Ki in the presence of MTA)
O=C(NC[C@H](O)CN1CCc2c(ccc(OCc3cnco3)c2Cl)C1)c1ccnc(NC2CCC2)c1 [Compound 194, N-[(2S)-3-[5-chloro-6-(oxazol-5-ylmethoxy)-3,4-dihydro-1H-isoquinolin-2-yl]-2-hydroxy-propyl]-2-(cyclobutylamino)pyridine-4-carboxamide]	A (a Ki ratio greater than or equal to 10 fold between the Ki in the presence of SAM and the Ki in the presence of MTA)	
